Earlier results as cited in US6555139B2, “Preparation of micron-size pharmaceutical particles by microfluidization” (Wockhardt Europe Limited, priority 1999, dated 2003).

Conditions: from the jejunum; cited from earlier work

COC(=O)C1=C(C)NC(C)=C(C(=O)OC)C1c1ccccc1[N+](=O)[O-] [Nifedipine, nifedipine]
absorption rate, t80%: less than 0.7 hours
